Reference: PMC8887125, “RBBP6 activates the pre-mRNA 3′ end processing machinery in humans” (Genes & Development, 2022)
No constants are given. Whether binding was seen depends on the method and setting. Binding seen in cells or lysates may run through a third protein. Here binding means that the protein was enriched with, or labelled near, the bait; the list need not be complete. A no says only that the protein was not detected with the bait. Where a sequence is shown, tags or fusion partners need not be part of it. Blank lines part the entries; values can stand above or below the molecule they belong to.

Protein sequences, listed by entry. Tags and fused reporters are not part of them.
UniProt Q7Z6E9: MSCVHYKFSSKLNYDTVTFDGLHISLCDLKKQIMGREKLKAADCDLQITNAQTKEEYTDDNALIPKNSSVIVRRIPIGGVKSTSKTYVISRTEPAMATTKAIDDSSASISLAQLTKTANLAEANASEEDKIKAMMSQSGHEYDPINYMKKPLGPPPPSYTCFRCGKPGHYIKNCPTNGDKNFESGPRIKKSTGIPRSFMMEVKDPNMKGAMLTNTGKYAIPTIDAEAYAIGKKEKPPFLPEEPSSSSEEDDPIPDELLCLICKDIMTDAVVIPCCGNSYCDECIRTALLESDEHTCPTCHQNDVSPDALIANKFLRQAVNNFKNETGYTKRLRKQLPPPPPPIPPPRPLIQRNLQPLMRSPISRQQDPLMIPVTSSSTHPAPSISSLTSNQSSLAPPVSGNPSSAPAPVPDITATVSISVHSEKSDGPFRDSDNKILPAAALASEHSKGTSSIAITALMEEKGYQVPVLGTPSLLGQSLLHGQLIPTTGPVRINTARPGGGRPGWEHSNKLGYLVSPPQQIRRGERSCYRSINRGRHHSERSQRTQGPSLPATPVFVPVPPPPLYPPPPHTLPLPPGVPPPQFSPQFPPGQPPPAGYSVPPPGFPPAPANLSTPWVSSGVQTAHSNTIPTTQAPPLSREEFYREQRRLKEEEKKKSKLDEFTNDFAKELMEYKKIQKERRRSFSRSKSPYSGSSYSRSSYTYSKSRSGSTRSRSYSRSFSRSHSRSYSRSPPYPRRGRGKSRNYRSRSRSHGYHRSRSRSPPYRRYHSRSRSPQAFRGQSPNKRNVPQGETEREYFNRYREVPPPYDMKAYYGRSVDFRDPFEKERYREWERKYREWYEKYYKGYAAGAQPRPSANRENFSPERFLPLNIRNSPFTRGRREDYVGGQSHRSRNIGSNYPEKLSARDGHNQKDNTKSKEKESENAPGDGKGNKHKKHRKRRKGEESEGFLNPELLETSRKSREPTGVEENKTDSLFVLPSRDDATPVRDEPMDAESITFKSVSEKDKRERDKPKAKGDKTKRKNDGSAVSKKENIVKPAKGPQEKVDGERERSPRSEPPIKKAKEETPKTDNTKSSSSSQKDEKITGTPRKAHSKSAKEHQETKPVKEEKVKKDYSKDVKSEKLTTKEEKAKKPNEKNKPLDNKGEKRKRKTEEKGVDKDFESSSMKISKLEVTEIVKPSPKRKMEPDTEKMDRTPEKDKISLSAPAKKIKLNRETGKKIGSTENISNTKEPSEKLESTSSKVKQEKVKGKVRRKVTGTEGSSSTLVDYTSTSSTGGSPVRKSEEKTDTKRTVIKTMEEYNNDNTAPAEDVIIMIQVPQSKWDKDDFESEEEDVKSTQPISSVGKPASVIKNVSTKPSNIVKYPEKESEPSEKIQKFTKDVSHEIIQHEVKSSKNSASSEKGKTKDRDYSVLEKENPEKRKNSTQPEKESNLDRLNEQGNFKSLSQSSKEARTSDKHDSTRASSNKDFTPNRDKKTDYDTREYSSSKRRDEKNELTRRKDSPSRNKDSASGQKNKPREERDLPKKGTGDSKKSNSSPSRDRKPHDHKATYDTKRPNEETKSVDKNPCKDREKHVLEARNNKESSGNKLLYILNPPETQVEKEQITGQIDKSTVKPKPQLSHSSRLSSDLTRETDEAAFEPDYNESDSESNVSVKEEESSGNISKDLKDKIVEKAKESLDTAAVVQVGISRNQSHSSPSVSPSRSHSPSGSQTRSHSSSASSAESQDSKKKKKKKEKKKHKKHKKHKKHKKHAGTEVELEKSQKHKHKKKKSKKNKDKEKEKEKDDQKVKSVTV
UniProt O95639: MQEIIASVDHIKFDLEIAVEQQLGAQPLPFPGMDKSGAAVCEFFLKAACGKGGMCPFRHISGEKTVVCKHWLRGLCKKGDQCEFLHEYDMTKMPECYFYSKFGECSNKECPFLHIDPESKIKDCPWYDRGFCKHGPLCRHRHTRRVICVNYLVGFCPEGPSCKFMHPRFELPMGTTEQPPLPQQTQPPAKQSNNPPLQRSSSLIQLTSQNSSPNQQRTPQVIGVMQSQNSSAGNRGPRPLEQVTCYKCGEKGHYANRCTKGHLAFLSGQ

Target: T1, endogenous WDR33 with a C-terminal HTBH tag (human (endogenous in HEK293T)) (UniProt Q9C0J8)
T1 sequence (chain, biotin on the biotin acceptor peptide of the tag (by endogenous enzymes)): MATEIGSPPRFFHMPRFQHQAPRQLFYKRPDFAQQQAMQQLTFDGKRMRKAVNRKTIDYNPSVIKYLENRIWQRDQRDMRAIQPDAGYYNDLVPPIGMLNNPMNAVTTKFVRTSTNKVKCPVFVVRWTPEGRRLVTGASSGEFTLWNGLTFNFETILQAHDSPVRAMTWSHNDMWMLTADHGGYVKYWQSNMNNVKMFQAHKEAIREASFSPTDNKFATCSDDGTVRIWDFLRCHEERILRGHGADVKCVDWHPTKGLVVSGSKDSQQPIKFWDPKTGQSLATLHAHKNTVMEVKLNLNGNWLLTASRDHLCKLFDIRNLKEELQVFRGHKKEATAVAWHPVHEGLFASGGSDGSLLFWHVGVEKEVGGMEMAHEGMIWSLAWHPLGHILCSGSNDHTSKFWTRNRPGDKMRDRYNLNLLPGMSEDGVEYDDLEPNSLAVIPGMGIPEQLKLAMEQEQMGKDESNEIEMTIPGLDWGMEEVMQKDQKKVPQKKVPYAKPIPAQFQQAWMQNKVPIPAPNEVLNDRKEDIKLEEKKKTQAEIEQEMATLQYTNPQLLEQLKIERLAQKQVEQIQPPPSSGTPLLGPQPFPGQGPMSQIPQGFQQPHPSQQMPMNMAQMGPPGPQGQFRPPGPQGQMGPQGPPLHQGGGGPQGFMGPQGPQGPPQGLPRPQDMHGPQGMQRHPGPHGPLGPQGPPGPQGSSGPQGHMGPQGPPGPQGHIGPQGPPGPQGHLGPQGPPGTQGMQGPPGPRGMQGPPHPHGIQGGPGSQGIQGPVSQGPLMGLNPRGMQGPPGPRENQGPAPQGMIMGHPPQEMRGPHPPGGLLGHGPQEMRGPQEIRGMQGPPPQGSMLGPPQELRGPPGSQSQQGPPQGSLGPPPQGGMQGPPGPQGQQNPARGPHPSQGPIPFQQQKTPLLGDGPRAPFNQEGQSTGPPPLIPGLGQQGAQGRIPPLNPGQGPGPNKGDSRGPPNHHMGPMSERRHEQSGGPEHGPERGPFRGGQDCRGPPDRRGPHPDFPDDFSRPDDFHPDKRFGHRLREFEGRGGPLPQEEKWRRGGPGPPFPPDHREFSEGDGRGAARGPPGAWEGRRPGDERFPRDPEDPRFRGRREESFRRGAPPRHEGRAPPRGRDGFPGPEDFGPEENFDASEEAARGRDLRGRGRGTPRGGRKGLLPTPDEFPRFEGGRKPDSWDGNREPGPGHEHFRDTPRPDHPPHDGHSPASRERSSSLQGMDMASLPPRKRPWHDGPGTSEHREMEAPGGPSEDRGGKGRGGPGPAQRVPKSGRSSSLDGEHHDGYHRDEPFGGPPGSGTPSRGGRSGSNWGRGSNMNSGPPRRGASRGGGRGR
Experiment: affinity purification with mass spectrometry; endogenous CPSF held on Strep-Tactin beads by the biotinylated HTBH tag of WDR33, from HEK293T total cell extract (replicate 1) or nuclear extract (replicates 2 and 3); 300 mM NaCl or KCl; eluted with TEV protease; SDS-PAGE and tandem mass spectrometry

- binding: no binding
Molecule: RBBP6, endogenous (from UniProt Q7Z6E9 1-1792)

- binding: binds
Molecule: CPSF30, endogenous (from UniProt O95639 1-269)

- binding: binds
B1: symplekin, endogenous (protein, UniProt Q92797 1-1274)
chain: MASGSGDSVTRRSVASQFFTQEEGPGIDGMTTSERVVDLLNQAALITNDSKITVLKQVQELIINKDPTLLDNFLDEIIAFQADKSIEVRKFVIGFIEEACKRDIELLLKLIANLNMLLRDENVNVVKKAILTMTQLYKVALQWMVKSRVISELQEACWDMVSAMAGDIILLLDSDNDGIRTHAIKFVEGLIVTLSPRMADSEIPRRQEHDISLDRIPRDHPYIQYNVLWEEGKAALEQLLKFMVHPAISSINLTTALGSLANIARQRPMFMSEVIQAYETLHANLPPTLAKSQVSSVRKNLKLHLLSVLKHPASLEFQAQITTLLVDLGTPQAEIARNMPSSKDTRKRPRDDSDSTLKKMKLEPNLGEDDEDKDLEPGPSGTSKASAQISGQSDTDITAEFLQPLLTPDNVANLVLISMVYLPEAMPASFQAIYTPVESAGTEAQIKHLARLMATQMTAAGLGPGVEQTKQCKEEPKEEKVVKTESVLIKRRLSAQGQAISVVGSLSSMSPLEEEAPQAKRRPEPIIPVTQPRLAGAGGRKKIFRLSDVLKPLTDAQVEAMKLGAVKRILRAEKAVACSGAAQVRIKILASLVTQFNSGLKAEVLSFILEDVRARLDLAFAWLYQEYNAYLAAGASGSLDKYEDCLIRLLSGLQEKPDQKDGIFTKVVLEAPLITESALEVVRKYCEDESRTYLGMSTLRDLIFKRPSRQFQYLHVLLDLSSHEKDKVRSQALLFIKRMYEKEQLREYVEKFALNYLQLLVHPNPPSVLFGADKDTEVAAPWTEETVKQCLYLYLALLPQNHKLIHELAAVYTEAIADIKRTVLRVIEQPIRGMGMNSPELLLLVENCPKGAETLVTRCLHSLTDKVPPSPELVKRVRDLYHKRLPDVRFLIPVLNGLEKKEVIQALPKLIKLNPIVVKEVFNRLLGTQHGEGNSALSPLNPGELLIALHNIDSVKCDMKSIIKATNLCFAERNVYTSEVLAVVMQQLMEQSPLPMLLMRTVIQSLTMYPRLGGFVMNILSRLIMKQVWKYPKVWEGFIKCCQRTKPQSFQVILQLPPQQLGAVFDKCPELREPLLAHVRSFTPHQQAHIPNSIMTILEASGKQEPEAKEAPAGPLEEDDLEPLTLAPAPAPRPPQDLIGLRLAQEKALKRQLEEEQKLKPGGVGAPSSSSPSPSPSARPGPPPSEEAMDFREEGPECETPGIFISMDDDSGLTEAALLDSSLEGPLPKETAAGGLTLKEERSPQTLAPVGEDAMKTPSPAAEDAREPEAKGNS

- binding: binds
B2: hFip1, endogenous (protein, UniProt Q6UN15 1-594)
chain: MSAGEVERLVSELSGGTGGDEEEEWLYGGPWDVHVHSDLAKDLDENEVERPEEENASANPPSGIEDETAENGVPKPKVTETEDDSDSDSDDDEDDVHVTIGDIKTGAPQYGSYGTAPVNLNIKTGGRVYGTTGTKVKGVDLDAPGSINGVPLLEVDLDSFEDKPWRKPGADLSDYFNYGFNEDTWKAYCEKQKRIRMGLEVIPVTSTTNKITAEDCTMEVTPGAEIQDGRFNLFKVQQGRTGNSEKETALPSTKAEFTSPPSLFKTGLPPSRNSTSSQSQTSTASRKANSSVGKWQDRYGRAESPDLRRLPGAIDVIGQTITISRVEGRRRANENSNIQVLSERSATEVDNNFSKPPPFFPPGAPPTHLPPPPFLPPPPTVSTAPPLIPPPGFPPPPGAPPPSLIPTIESGHSSGYDSRSARAFPYGNVAFPHLPGSAPSWPSLVDTSKQWDYYARREKDRDRERDRDRERDRDRDRERERTRERERERDHSPTPSVFNSDEERYRYREYAERGYERHRASREKEERHRERRHREKEETRHKSSRSNSRRRHESEEGDSHRRHKHKKSKRSKEGKEAGSEPAPEQESTEATPAE

- binding: binds
B3: CStF64, endogenous (protein, UniProt P33240 1-577)
chain: MAGLTVRDPAVDRSLRSVFVGNIPYEATEEQLKDIFSEVGPVVSFRLVYDRETGKPKGYGFCEYQDQETALSAMRNLNGREFSGRALRVDNAASEKNKEELKSLGTGAPVIESPYGETISPEDAPESISKAVASLPPEQMFELMKQMKLCVQNSPQEARNMLLQNPQLAYALLQAQVVMRIVDPEIALKILHRQTNIPTLIAGNPQPVHGAGPGSGSNVSMNQQNPQAPQAQSLGGMHVNGAPPLMQASMQGGVPAPGQMPAAVTGPGPGSLAPGGGMQAQVGMPGSGPVSMERGQVPMQDPRAAMQRGSLPANVPTPRGLLGDAPNDPRGGTLLSVTGEVEPRGYLGPPHQGPPMHHVPGHESRGPPPHELRGGPLPEPRPLMAEPRGPMLDQRGPPLDGRGGRDPRGIDARGMEARAMEARGLDARGLEARAMEARAMEARAMEARAMEARAMEVRGMEARGMDTRGPVPGPRGPIPSGMQGPSPINMGAVVPQGSRQVPVMQGTGMQGASIQGGSQPGGFSPGQNQVTPQDHEKAALIMQVLQLTADQIAMLPPEQRQSILILKEQIQKSTGAP

- binding: binds
B4: CPSF100, endogenous (protein, UniProt Q9P2I0 1-782)
chain: MTSIIKLTTLSGVQEESALCYLLQVDEFRFLLDCGWDEHFSMDIIDSLRKHVHQIDAVLLSHPDPLHLGALPYAVGKLGLNCAIYATIPVYKMGQMFMYDLYQSRHNTEDFTLFTLDDVDAAFDKIQQLKFSQIVNLKGKGHGLSITPLPAGHMIGGTIWKIVKDGEEEIVYAVDFNHKREIHLNGCSLEMLSRPSLLITDSFNATYVQPRRKQRDEQLLTNVLETLRGDGNVLIAVDTAGRVLELAQLLDQIWRTKDAGLGVYSLALLNNVSYNVVEFSKSQVEWMSDKLMRCFEDKRNNPFQFRHLSLCHGLSDLARVPSPKVVLASQPDLECGFSRDLFIQWCQDPKNSIILTYRTTPGTLARFLIDNPSEKITEIELRKRVKLEGKELEEYLEKEKLKKEAAKKLEQSKEADIDSSDESDIEEDIDQPSAHKTKHDLMMKGEGSRKGSFFKQAKKSYPMFPAPEERIKWDEYGEIIKPEDFLVPELQATEEEKSKLESGLTNGDEPMDQDLSDVPTKCISTTESIEIKARVTYIDYEGRSDGDSIKKIINQMKPRQLIIVHGPPEASQDLAECCRAFGGKDIKVYMPKLHETVDATSETHIYQVRLKDSLVSSLQFCKAKDAELAWIDGVLDMRVSKVDTGVILEEGELKDDGEDSEMQVEAPSDSSVIAQQKAMKSLFGDDEKETGEESEIIPTLEPLPPHEVPGHQSVFMNEPRLSDFKQVLLREGIQAEFVGGVLVCNNQVAVRRTETGRIGLEGCLCQDFYRIRDLLYEQYAIV

- binding: binds
B5: CPSF73, endogenous (protein, UniProt Q9UKF6 1-684)
chain: MSAIPAEESDQLLIRPLGAGQEVGRSCIILEFKGRKIMLDCGIHPGLEGMDALPYIDLIDPAEIDLLLISHFHLDHCGALPWFLQKTSFKGRTFMTHATKAIYRWLLSDYVKVSNISADDMLYTETDLEESMDKIETINFHEVKEVAGIKFWCYHAGHVLGAAMFMIEIAGVKLLYTGDFSRQEDRHLMAAEIPNIKPDILIIESTYGTHIHEKREEREARFCNTVHDIVNRGGRGLIPVFALGRAQELLLILDEYWQNHPELHDIPIYYASSLAKKCMAVYQTYVNAMNDKIRKQININNPFVFKHISNLKSMDHFDDIGPSVVMASPGMMQSGLSRELFESWCTDKRNGVIIAGYCVEGTLAKHIMSEPEEITTMSGQKLPLKMSVDYISFSAHTDYQQTSEFIRALKPPHVILVHGEQNEMARLKAALIREYEDNDEVHIEVHNPRNTEAVTLNFRGEKLAKVMGFLADKKPEQGQRVSGILVKRNFNYHILSPCDLSNYTDLAMSTVKQTQAIPYTGPFNLLCYQLQKLTGDVEELEIQEKPALKVFKNITVIQEPGMVVLEWLANPSNDMYADTVTTVILEVQSNPKIRKGAVQKVSKKLEMHVYSKRLEIMLQDIFGEDCVSVKDDSILSVTVDGKTANLNLETRTVECEEGSEDDESLREMVELAAQRLYEALTPVH
